Results are given in words; binding and its absence hold for the method and conditions named. In cells and extracts the contact can be indirect. Some entries that bind do so weakly or less than the wild type.
Molecular target: Cdh1 (APC/C co-activator) (human (endogenous in HEK293T)) (UniProt Q9UM11)
Assay: co-IP; endogenous Cdh1 immunoprecipitated with anti-Cdh1 antibody on protein A/G beads from lysates of HEK293T cells treated with nocodazole for 20 h and MG132 for 6 h; blot with anti-BRSK2; lysis buffer 20 mM Tris-HCl pH 7.5, 150 mM NaCl, 1% Triton, 4°C; control IgG in parallel

The chains behind the UniProt entries cited, without tags or fusion partners.
UniProt Q9UM11: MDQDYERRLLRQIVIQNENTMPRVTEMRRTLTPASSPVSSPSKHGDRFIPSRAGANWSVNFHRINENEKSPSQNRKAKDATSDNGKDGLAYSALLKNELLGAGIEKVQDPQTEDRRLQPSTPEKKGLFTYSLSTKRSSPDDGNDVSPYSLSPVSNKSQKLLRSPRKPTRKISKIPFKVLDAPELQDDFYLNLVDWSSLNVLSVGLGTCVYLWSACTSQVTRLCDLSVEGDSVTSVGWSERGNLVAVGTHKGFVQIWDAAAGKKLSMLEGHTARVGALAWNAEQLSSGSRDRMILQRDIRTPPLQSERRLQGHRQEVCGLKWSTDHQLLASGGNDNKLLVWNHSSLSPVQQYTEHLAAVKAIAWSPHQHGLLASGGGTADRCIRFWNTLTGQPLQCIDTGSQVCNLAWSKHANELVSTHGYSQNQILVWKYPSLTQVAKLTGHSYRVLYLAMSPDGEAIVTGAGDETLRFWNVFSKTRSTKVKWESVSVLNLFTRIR

B1: Brain-specific kinase 2 (BRSK2) (protein, UniProt Q8IWQ3 1-736)
chain: MTSTGKDGGAQHAQYVGPYRLEKTLGKGQTGLVKLGVHCVTCQKVAIKIVNREKLSESVLMKVEREIAILKLIEHPHVLKLHDVYENKKYLYLVLEHVSGGELFDYLVKKGRLTPKEARKFFRQIISALDFCHSHSICHRDLKPENLLLDEKNNIRIADFGMASLQVGDSLLETSCGSPHYACPEVIRGEKYDGRKADVWSCGVILFALLVGALPFDDDNLRQLLEKVKRGVFHMPHFIPPDCQSLLRGMIEVDAARRLTLEHIQKHIWYIGGKNEPEPEQPIPRKVQIRSLPSLEDIDPDVLDSMHSLGCFRDRNKLLQDLLSEEENQEKMIYFLLLDRKERYPSQEDEDLPPRNEIDPPRKRVDSPMLNRHGKRRPERKSMEVLSVTDGGSPVPARRAIEMAQHGQRSRSISGASSGLSTSPLSSPRVTPHPSPRGSPLPTPKGTPVHTPKESPAGTPNPTPPSSPSVGGVPWRARLNSIKNSFLGSPRFHRRKLQVPTPEEMSNLTPESSPELAKKSWFGNFISLEKEEQIFVVIKDKPLSSIKADIVHAFLSIPSLSHSVISQTSFRAEYKATGGPAVFQKPVKFQVDITYTEGGEAQKENGIYSVTFTLLSGPSRRFKRVVETIQAQLLSTHDPPAAQHLSDTTNCMEMMTGRLSKCGSPLSNFFDVIKQLFSDEKNGQAAQAPSTPAKRSAHGPLGDSAAAGPGPGGDAEYPTGKDTAKMGPPTARREQP
With B1 the binding was “binds”.

— PMC3448725
